{"source": "patent US7384739", "assay_in_all_cases": "activity assay", "key": {"[1]": {"molecular_target": "T1, KOD DNA polymerase (Thermococcus kodakaraensis KOD1) (UniProt P56689)", "T1 sequence": "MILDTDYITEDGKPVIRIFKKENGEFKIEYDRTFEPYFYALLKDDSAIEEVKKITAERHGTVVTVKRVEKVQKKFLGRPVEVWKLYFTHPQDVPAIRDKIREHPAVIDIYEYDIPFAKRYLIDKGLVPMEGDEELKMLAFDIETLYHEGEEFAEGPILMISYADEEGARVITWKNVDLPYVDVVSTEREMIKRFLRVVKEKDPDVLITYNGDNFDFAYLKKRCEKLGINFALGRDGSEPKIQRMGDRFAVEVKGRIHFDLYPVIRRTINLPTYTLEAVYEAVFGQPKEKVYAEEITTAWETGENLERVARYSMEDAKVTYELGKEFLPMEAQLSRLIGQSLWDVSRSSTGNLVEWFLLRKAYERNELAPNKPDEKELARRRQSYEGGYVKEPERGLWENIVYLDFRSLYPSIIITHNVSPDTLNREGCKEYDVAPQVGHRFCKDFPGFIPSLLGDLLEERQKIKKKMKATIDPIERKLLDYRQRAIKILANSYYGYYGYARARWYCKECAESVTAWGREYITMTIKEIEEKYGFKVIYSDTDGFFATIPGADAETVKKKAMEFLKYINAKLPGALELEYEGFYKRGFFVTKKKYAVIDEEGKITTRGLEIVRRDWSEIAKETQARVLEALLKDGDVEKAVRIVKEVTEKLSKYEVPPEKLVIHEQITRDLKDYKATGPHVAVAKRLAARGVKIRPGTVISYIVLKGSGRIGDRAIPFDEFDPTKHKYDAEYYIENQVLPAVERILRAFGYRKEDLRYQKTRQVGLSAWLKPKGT", "conditions": "primer elongation, alkaline agarose; 150 fmol polymerase, 1.5 pmol DNA; 75 C, 2 mM MgCl2, 10 mM KCl; processivity supposed 5 kb or more; purified recombinant protein"}, "[2]": {"test_system": "KOD DNA polymerase + KOD-PCNA (Thermococcus kodakaraensis KOD1)", "conditions": "primer elongation with 30-fold molar PCNA over polymerase; 75 C, 2 mM MgCl2; about 3x rate without PCNA; purified recombinant protein"}, "[3]": {"test_system": "KOD DNA polymerase + KOD-PCNA + KOD-RFC complex (mRFCS/RFCL) (Thermococcus kodakaraensis KOD1)", "conditions": "primer elongation with PCNA and RFC; 0.5-2 kb signal diminished vs PCNA only; purified recombinant protein"}}, "note": "The exact form of at least one protein or probe is not confirmed. For part of these data: Tags and fusion partners may be left off the protein sequences shown."}
{"sequence": "CGCCAGGGTTTTCCCAGTCACGAC [M13 P7 primer annealed to M13mp18 circular ssDNA]", "values": [{"measurement": "activity on this sequence", "setting": "[1]", "result": 40, "unit": "bases/s"}, {"measurement": "activity on this sequence", "setting": "[2]", "result": 120, "unit": "bases/s"}, {"measurement": "activity on this sequence (fold synthesized DNA vs polymerase alone)", "setting": "[3]", "result": "> 2"}]}
